Data: patent publication US20260139047A1
Results are given in words; binding and its absence hold for the method and conditions named. Some binding calls cover weakened binding; strength is not graded here.

By UniProt entry, the sequences of proteins in these tests, tags left out. Residues count along the entry.
UniProt P60568, residues 21-153: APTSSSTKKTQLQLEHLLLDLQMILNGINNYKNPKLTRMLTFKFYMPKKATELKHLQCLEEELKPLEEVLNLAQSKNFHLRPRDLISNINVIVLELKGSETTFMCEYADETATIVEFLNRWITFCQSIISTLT

B1: C2-53 (antibody, human IgG1, kappa, L234A L235A, V domains shown)
VH: EVQLVESGGGLVQPGRSLILSCAASGFTFDDYAMHWVRQAPGKGLEWVSGISWNSGSIGYADSVKGRFTISRDNAKNSLYLQMNSLRAEDTALYYCAKDQLRWGTYYYYGMDVWGQGTTVTVSS
VL: DIQMTQSPSTLSASVGDRVTITCRASQSVSIWVAWYQQKPGKAPKLLIYKASSLERGVPTRFSGSGSGTEFTLTISSLQPEDFATYHCQQYDTGATFGQGTKVEMKR
B2: D3-68 (antibody, human IgG1, kappa, L234A L235A, V domains shown)
VH: QVQLVQSGPEVKKPGASVKVSCKASGYTFTSYGISWVRRAPGQGLEWMGWISAYNGNTNYAQKLQGRVTMTTDTSTSTAYMELRSLRSDDTAVYYCARDLQSPTYYYGSGVIDYWGQGTLVTVSS
VL: DIQLTQSPSTLSASVGDRVTISCRASRAVSPWLAWYQHRPGQAPKLLIYAASSLQSGVPSRFSGSGSGTDFTLTISSLQPEDFATYYCQQYRSYPFTFGPGTTVDIRR
B3: D2-60 (antibody, human IgG1, kappa, L234A L235A, V domains shown)
VH: QVQLVQSGAEVKKPGASVKVSCKASGYTFTSYGISWVRQAPGQGLEWMGWISAYNGNTNYAQKLQGRVTMTTDTSTSTAYMELRSLRSDDTAVYYCAREYSSWYSGGMDVWGQGTTVTVSS
VL: DIQMTQSPSSLSASVGDRVTITCRASQGISNYLAWYQQKPGKVPKLLIYAASTLQSGVPSRFSGSGSGTDFTLTISSLQPEDVATYYCQKYDSAPFTFGQGTRLEIKR

These binders were tested against IL-2 (C013, Novoprotein) (UniProt P60568) (assay: SPR (Biacore T200)).

binding, binds:
B1
B2
B3
